Results deposited as PubChem BioAssay AID1159578 (Peter MacCallum Cancer Centre, 2015).
Here is an unselected part of about 18,000 reagents tested. About 1,030 of them (5.7%) count as active. 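Inactive calls also include pools with fewer than 3300 nuclei, whose migration was not assessed.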 Raw values are not corrected between plates. Not all columns of the deposit are shown.

Assay: 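Knock-downs that alter how fast lymphatic endothelial cells migrate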 (primary screen)
Cell system: human lymphatic endothelial cells
Reagents: siRNA pool against human genes, 40 nM
Time to read-out: 48 h after transfection
Detection: 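High-content imaging of dye-stained cells in a scratch assay measures filled wound area and nuclei per well; duplicate means given as ratio to mock and robust z-score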
Direction: migration robust z-score: higher = faster migration into the scratch; nuclei per well: higher = more cells in the well
Active means: 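Pools averaging fewer than 3300 nuclei are never called; remaining pools count as changed when migration robust z lies outside -2 to 2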
Calls: active = migration changed; inactive = no migration change, or too few cells

Silencing of RGS4 (GeneID 5999) resulted in: migration robust z-score -0.64; nuclei per well, duplicate mean 5377; inactive.
With knock-down of CPNE9 (GeneID 151835) the results were migration robust z-score -0.08; nuclei per well, duplicate mean 5721; inactive.
Depletion of LAMTOR3 (GeneID 8649) came out at: migration robust z-score 0.32; nuclei per well, duplicate mean 6271; inactive.
Knock-down of RAB34 (GeneID 83871) resulted in: migration robust z-score -0.35; nuclei per well, duplicate mean 4777; inactive.
DOP1A (GeneID 23033) scored migration robust z-score 0.36; nuclei per well, duplicate mean 5978; inactive.
NKIRAS2 (GeneID 28511) showed migration robust z-score 1.15; nuclei per well, duplicate mean 6328; inactive.
Silencing of PIWIL2 (GeneID 55124) came out at: migration robust z-score -0.32; nuclei per well, duplicate mean 5850; inactive.
For RYR3 (GeneID 6263), the entry reads migration robust z-score -1.48; nuclei per well, duplicate mean 4189; inactive.
With knock-down of CGRRF1 (GeneID 10668) the results were migration robust z-score 0.21; nuclei per well, duplicate mean 3892; inactive.
With knock-down of TNR (GeneID 7143), the record shows migration robust z-score 0; nuclei per well, duplicate mean 5700; inactive.
Depletion of AMZ2 (GeneID 51321) came out at: migration robust z-score -0.1; nuclei per well, duplicate mean 6244; inactive.
CYP2C9 (GeneID 1559) scored migration robust z-score 1.04; nuclei per well, duplicate mean 5854; inactive.
Against ACSS1 (GeneID 84532), the entry reads migration robust z-score -0.91; nuclei per well, duplicate mean 5197; inactive.
Against TMA7 (GeneID 51372), the values are migration robust z-score -0.08; nuclei per well, duplicate mean 5632; inactive.
GALK1 (GeneID 2584) gave migration robust z-score -0.13; nuclei per well, duplicate mean 5190; inactive.
Knock-down of DGKH (GeneID 160851) came out at: migration robust z-score -0.39; nuclei per well, duplicate mean 4978; inactive.
Against CHMP4B (GeneID 128866), the entry reads migration robust z-score -0.43; nuclei per well, duplicate mean 7611; inactive.
IFNAR2 (GeneID 3455) gave migration robust z-score 0.44; nuclei per well, duplicate mean 6337; inactive.
Against RIPK3 (GeneID 11035), the entry reads migration robust z-score 0.9; nuclei per well, duplicate mean 5616; inactive.
PSMD10 (GeneID 5716) gave migration robust z-score -3.25; nuclei per well, duplicate mean 2215; inactive.
RABL3 (GeneID 285282) gave migration robust z-score 0.25; nuclei per well, duplicate mean 6301; inactive.

Entries above whose target name begins with P or p:
PIWIL2 (GeneID 55124) — migration robust z-score: -0.32; nuclei per well, duplicate mean: 5850; activity call: inactive
PSMD10 (GeneID 5716) — migration robust z-score: -3.25; nuclei per well, duplicate mean: 2215; activity call: inactive
